Assay [1] concerns the target T1, neuropilin-1-Ig fusion protein (UniProt O14786).
T1 sequence (looked up): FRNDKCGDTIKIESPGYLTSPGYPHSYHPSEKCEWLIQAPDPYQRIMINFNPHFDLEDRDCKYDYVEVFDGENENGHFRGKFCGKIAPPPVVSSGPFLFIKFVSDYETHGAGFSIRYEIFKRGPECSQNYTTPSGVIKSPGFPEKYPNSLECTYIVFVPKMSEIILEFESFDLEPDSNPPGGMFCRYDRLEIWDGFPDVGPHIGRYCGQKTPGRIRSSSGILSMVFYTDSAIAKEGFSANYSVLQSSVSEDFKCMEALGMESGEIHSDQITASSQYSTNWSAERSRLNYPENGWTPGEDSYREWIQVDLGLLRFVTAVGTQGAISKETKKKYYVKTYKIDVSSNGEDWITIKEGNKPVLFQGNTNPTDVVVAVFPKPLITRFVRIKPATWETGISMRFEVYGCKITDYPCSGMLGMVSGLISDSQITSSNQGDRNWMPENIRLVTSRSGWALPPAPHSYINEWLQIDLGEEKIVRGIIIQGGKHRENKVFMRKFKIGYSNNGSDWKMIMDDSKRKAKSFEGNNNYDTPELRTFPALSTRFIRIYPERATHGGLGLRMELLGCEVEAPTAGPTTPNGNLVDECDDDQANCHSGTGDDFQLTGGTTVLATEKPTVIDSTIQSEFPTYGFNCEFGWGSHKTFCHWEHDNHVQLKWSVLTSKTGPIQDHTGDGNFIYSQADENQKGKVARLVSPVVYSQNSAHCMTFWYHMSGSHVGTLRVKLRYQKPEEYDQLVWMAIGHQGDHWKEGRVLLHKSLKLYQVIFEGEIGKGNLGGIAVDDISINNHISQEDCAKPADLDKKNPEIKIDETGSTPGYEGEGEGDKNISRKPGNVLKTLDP
The assay can be described thus: pull-down of 35S-labelled 293T conditioned medium with NP-1-Ig conditioned medium, protein A-Sepharose, SDS-PAGE.

Amino acid sequences for entries named in this document (tags omitted). A change or cut given only in a name is not applied to a line headed by its entry. Residues count along the entry.
UniProt P35968, residues 20-764: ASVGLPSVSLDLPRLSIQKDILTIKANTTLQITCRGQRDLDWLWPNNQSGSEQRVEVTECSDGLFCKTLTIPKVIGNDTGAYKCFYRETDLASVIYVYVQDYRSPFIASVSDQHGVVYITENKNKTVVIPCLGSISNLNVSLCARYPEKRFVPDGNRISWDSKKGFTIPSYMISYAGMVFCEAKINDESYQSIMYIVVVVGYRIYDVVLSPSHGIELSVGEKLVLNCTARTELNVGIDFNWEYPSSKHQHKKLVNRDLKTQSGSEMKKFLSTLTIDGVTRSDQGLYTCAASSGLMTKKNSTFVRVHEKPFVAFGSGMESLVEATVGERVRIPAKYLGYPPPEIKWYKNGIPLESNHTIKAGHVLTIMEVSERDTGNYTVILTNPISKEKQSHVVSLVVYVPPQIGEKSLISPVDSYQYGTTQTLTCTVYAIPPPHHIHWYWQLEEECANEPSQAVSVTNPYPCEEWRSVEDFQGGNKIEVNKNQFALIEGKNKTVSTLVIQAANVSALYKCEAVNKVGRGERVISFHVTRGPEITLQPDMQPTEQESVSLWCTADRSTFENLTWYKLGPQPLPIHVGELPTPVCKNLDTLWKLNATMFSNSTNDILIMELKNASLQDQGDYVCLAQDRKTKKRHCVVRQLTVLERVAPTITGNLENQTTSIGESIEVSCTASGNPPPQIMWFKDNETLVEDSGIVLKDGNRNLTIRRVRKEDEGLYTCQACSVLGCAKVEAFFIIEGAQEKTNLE
UniProt P17948, residues 27-758: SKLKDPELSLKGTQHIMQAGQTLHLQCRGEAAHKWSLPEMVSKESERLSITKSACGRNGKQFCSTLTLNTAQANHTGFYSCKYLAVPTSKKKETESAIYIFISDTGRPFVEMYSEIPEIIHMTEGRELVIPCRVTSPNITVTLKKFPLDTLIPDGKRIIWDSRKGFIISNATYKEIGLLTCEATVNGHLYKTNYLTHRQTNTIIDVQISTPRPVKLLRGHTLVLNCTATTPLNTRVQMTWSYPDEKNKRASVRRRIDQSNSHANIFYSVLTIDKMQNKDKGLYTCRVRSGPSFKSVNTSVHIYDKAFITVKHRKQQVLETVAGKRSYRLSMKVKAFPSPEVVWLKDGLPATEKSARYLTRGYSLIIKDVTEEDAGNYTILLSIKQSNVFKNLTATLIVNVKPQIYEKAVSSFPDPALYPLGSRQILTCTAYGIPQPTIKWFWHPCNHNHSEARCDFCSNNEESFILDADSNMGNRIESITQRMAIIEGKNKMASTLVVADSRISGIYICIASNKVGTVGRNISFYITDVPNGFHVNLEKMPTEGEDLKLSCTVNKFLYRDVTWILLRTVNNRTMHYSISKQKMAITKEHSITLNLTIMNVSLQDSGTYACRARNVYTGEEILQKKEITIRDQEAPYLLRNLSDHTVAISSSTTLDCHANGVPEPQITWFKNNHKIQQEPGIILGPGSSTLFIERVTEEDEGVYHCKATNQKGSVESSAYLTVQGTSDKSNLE
UniProt P15692: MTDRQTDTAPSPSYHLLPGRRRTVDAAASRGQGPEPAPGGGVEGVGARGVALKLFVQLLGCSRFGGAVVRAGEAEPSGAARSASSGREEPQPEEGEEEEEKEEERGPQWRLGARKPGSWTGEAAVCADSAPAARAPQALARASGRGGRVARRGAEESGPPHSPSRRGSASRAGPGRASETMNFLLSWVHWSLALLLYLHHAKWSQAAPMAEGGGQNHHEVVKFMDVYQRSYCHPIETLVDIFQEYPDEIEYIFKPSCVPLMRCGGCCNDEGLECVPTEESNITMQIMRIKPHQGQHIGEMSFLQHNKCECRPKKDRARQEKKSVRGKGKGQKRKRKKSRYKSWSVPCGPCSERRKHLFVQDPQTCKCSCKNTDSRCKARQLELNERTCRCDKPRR

The target in assay [2] is T2, neuropilin-2-Ig fusion protein (UniProt O60462).
T2 sequence (looked up): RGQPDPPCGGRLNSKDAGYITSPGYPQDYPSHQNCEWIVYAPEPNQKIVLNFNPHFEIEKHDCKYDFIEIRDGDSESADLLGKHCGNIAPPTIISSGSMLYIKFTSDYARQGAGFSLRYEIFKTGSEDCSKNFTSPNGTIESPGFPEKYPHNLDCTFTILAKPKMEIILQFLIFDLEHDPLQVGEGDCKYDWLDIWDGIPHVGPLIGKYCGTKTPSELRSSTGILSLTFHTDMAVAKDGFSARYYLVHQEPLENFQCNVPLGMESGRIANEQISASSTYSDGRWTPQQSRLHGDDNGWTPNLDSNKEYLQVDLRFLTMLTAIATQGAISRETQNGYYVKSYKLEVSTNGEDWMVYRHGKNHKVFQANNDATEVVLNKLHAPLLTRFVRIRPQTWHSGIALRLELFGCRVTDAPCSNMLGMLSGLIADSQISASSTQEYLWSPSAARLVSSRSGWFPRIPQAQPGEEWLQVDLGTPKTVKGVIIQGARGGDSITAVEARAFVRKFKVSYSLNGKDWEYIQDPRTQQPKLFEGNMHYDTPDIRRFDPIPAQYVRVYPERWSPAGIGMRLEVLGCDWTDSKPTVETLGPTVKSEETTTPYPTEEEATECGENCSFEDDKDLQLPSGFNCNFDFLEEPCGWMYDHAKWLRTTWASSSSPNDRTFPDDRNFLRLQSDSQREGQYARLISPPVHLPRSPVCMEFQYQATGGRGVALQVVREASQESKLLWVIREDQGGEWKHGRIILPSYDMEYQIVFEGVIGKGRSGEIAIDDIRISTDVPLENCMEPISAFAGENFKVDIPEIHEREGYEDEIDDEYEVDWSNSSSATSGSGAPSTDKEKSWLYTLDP
The assay can be described thus: pull-down of 35S-labelled 293T conditioned medium with NP-2-Ig conditioned medium, protein A-Sepharose, SDS-PAGE.

The target of assay [3] is soluble VEGFR-2-Ig fusion protein (UniProt P35968). The assay can be described thus: pull-down of 35S-labelled 293T conditioned medium with 200 ng VEGFR-2-Ig, protein A/G-Sepharose, SDS-PAGE, autoradiography.
In assay [4] the target is soluble VEGFR-1-Ig fusion protein (UniProt P17948). The experiment in a line: pull-down of 35S-labelled 293T conditioned medium with 200 ng VEGFR-1-Ig, protein A/G-Sepharose, SDS-PAGE, autoradiography.
In assay [5] the target is T2, neuropilin-2-Ig fusion protein. The experiment in a line: pull-down of 35S-labelled 293T conditioned medium with NP2-Ig, without heparin.
Assay [6] shares this target. The experiment in a line: pull-down of 35S-labelled 293T conditioned medium with NP2-Ig, with or without 10 µg/ml heparin, SDS-PAGE, autoradiography.
The target of assay [7] is T1, neuropilin-1-Ig fusion protein. The assay can be described thus: pull-down of 35S-labelled 293T conditioned medium with NP1-Ig, with or without 10 µg/ml heparin, SDS-PAGE, autoradiography.
Assay [8] addresses processed VEGF109 cleaved from CUB-VEGF109 (Homo sapiens (Human)) (UniProt P15692). The experiment in a line: anti-myc immunoprecipitation of 35S-labelled 293T medium, 7% PAGE in non-reducing conditions.

No constants are given. Whether binding was seen depends on the method and setting. For part of these data: Binding seen in cells or lysates may run through a third protein. Some entries that bind do so weakly or less than the wild type. For part of these data: Where a sequence is shown, tags or fusion partners need not be part of it.

B1: VEGF-DDC chimeric protein (ligand)
chain: DAAQDPSSNEHGPVKRSSQSTLERSEQQIRAASSLEELLRITHSEDWKLWRCRLRLKSFTSMDSRSASHRSTRFAATFYDIETLKVIDEEWQRTQCSPRETCVEVASELGKSTNTFFKPPCVNVFRCGGCCNEESLICMNTSTSYISKQLFEISVPLTSVPELVPVKVANHTGCKCLPTAPRHPYSIIRRSLPATLPQCQAANKTCPTNYMWNNHICRCLAQEDFMFSSDAGDDSTDGFHDICGPNKELDEETCQCVCRAGLRPASCGPHKELDRNSCQCVCKNKLFPSQCGANREFDENTCQCVCKRTCPRNQPLNPGKCACECTESPQKCLLKGKKFHHQTCSCYRRPCTNRQKACEPGFSYSEEVCRCVPSYWKRPQMS
For B1, the binding result in assay [1] and in assay [2] was “binds” in each case.

B2: VEGF-CDC chimeric protein (ligand)
chain: DAAQDPFESGLDLSDAEPDAGEATAYASKDLEEQLRSVSSVDELMTVLYPEYWKMYKCQLRKGGWQHNREQANLNSRTEETIKFAATFYDIETLKVIDEEWQRTQCSPRETCVEVASELGKSTNTFFKPPCVNVFRCGGCCNEESLICMNTSTSYISKQLFEISVPLTSVPELVPVKVANHTGCKCLPTAPRHPYSIIRRSLPATLPQCQAANKTCPTNYMWNNHICRCLAQEDFMFSSDAGDDSTDGFHDICGPNKELDEETCQCVCRAGLRPASCGPHKELDRNSCQCVCKNKLFPSQCGANREFDENTCQCVCKRTCPRNQPLNPGKCACECTESPQKCLLKGKKFHHQTCSCYRRPCTNRQKACEPGFSYSEEVCRCVPSYWKRPQMS
As to B2, the binding result in assay [1] was “binds”.

B3: VEGF-CDD chimeric protein (ligand)
chain: DAAQDPFESGLDLSDAEPDAGEATAYASKDLEEQLRSVSSVDELMTVLYPEYWKMYKCQLRKGGWQHNREQANLNSRTEETIKFAATFYDIETLKVIDEEWQRTQCSPRETCVEVASELGKSTNTFFKPPCVNVFRCGGCCNEESLICMNTSTSYISKQLFEISVPLTSVPELVPVKVANHTGCKCLPTAPRHPYSIIRRSIQIPEEDRCSHSKKLCPIDMLWDSNKCKCVLQEENPLAGTEDHSHLQEPALCGPHMMFDEDRCECVCKTPCPKDLIQHPKNCSCFECKESLETCCQKHKLFHPDTCSCEDRCPFHTRPCASGKTACAKHCRFPKEKRAAQGPHSRKNP
With B3, the binding entry in assay [1] is “binds”.

B4: VEGF-CAC chimeric polypeptide (ligand)
chain: DAAQDPFESGLDLSDAEPDAGEATAYASKDLEEQLRSVSSVDELMTVLYPEYWKMYKCQLRKGGWQHNREQANLNSRTEETIKFAAGQNHHEVVKFMDVYQRSYCHPIETLVDIFQEYPDEIEYIFKPSCVPLMRCGGCCNDEGLECVPTEESNITMQIMRIKPHQGQHIGEMSFLQHNKCECRPKKDVYRQVHSIIRRSLPATLPQCQAANKTCPTNYMWNNHICRCLAQEDFMFSSDAGDDSTDGFHDICGPNKELDEETCQCVCRAGLRPASCGPHKELDRNSCQCVCKNKLFPSQCGANREFDENTCQCVCKRTCPRNQPLNPGKCACECTESPQKCLLKGKKFHHQTCSCYRRPCTNRQKACEPGFSYSEEVCRCVPSYWKRPQMSHHHHHHK
For the molecule B4, the binding entry in assay [3], in assay [4], in assay [5], in assay [6] and in assay [7] was “binds” throughout.

B5: CUB271-VEGF chimeric protein (ligand)
chain: DAAQGSTPQSASIKALRNANLRRDESNHLTDLYRRDETIQVKGNGYVQSPRFPNSYPRNLLLTWRLHSQENTRIQLVFDNQFGLEEAENDICRYDFVEVEDISETSTIIRGRWCGHKEVPPRIKSRTNQIKITFKSDDYFVAKPGFKIYYSLLEDFQPAAASETNWESVTSSISGVSYNSPSVTDPTLIADALDKKIAEFDTVEDLLKYFNPESWQEDLENMYLDTPRYRGRSYHDRKSKVDLDRLNDDAKRYSDPGQNHHEVVKFMDVYQRSYCHPIETLVDIFQEYPDEIEYIFKPSCVPLMRCGGCCNDEGLECVPTEESNITMQIMRIKPHQGQHIGEMSFLQHNKCECRPKKDLVFEQKLISEEDLNSAVDHHHHHH
With B5, the binding entry in assay [8] was “binds”.

B6: CUB254-VEGF chimeric protein (ligand)
chain: DAAQGSTPQSASIKALRNANLRRDESNHLTDLYRRDETIQVKGNGYVQSPRFPNSYPRNLLLTWRLHSQENTRIQLVFDNQFGLEEAENDICRYDFVEVEDISETSTIIRGRWCGHKEVPPRIKSRTNQIKITFKSDDYFVAKPGFKIYYSLLEDFQPAAASETNWESVTSSISGVSYNSPSVTDPTLIADALDKKIAEFDTVEDLLKYFNPESWQEDLENMYLDTPRYRGRSYHDRNDPGQNHHEVVKFMDVYQRSYCHPIETLVDIFQEYPDEIEYIFKPSCVPLMRCGGCCNDEGLECVPTEESNITMQIMRIKPHQGQHIGEMSFLQHNKCECRPKKDLVFEQKLISEEDLNSAVDHHHHHH
Consider B6, for which the binding result in assay [8] is given as “binds”.

B7: CUB256-VEGF chimeric protein (ligand)
chain: DAAQGSTPQSASIKALRNANLRRDESNHLTDLYRRDETIQVKGNGYVQSPRFPNSYPRNLLLTWRLHSQENTRIQLVFDNQFGLEEAENDICRYDFVEVEDISETSTIIRGRWCGHKEVPPRIKSRTNQIKITFKSDDYFVAKPGFKIYYSLLEDFQPAAASETNWESVTSSISGVSYNSPSVTDPTLIADALDKKIAEFDTVEDLLKYFNPESWQEDLENMYLDTPRYRGRSYHDRKSNDPGQNHHEVVKFMDVYQRSYCHPIETLVDIFQEYPDEIEYIFKPSCVPLMRCGGCCNDEGLECVPTEESNITMQIMRIKPHQGQHIGEMSFLQHNKCECRPKKDLVFEQKLISEEDLNSAVDHHHHHH
B7: the binding entry in assay [8] is given as “binds”.

(Values after patent US20070142282A1.)
